The source gives many values for each of these; only a part stands here.
System: CHD
Assay: Meta-analysis of CARE and WOSCOPS combined, synergy index, CHD endpoint
Format: in vivo, human
From the text: Tables 4-5 provide meta-analyses of CARE and WOSCOPS combined (2nd section of each table) for two endpoints (CHD and CVD) and three genetic models (dominant, recessive, and additive), as well as logistic regression analyses of CARE (3rd section of each table) and WOSCOPS (4th section of each table) individually.
Tables 12 and 17 provide results of meta-analysis of the CARE and WOSCOPS sample sets combined by direct genotyping and by imputing genotypes.
“P” indicates the p-value, and “P(R)” (or “P.R.”) indicates the p-value random effect. Both of these are p-values corresponding to a statistical test of whether the combined synergy index is equal to one but use different assumptions to derive the p-value. “P” is calculated using a fixed effects model, and “P(R)” is calculated using a random effects model.
“OR” indicates the odds ratio (synergy index) calculated from a fixed effects model, and “OR(R)” (or “OR.R.”) indicates the odds ratio (synergy index) calculated from a random effects model.

[1] = SNP rs1463768, allele (A1) G, RECESSIVE, Genotyped
[2] = SNP rs1463769, allele (A1) G, RECESSIVE, Imputed
[3] = SNP rs1472435, allele (A1) A, ADDITIVE, Imputed
[4] = SNP rs1472435, allele (A1) A, DOMINANT, Imputed
[5] = SNP rs1476714, allele (A1) A, DOMINANT, Imputed
[6] = SNP rs1495159, allele (A1) G, ADDITIVE, Imputed
[7] = SNP rs1495159, allele (A1) G, GENOTYPIC, Imputed
[8] = SNP rs1495375, allele (A1) A, DOMINANT, Imputed
[9] = SNP rs1495376, allele (A1) T, DOMINANT, Imputed
[10] = SNP rs1495377, allele (A1) G, DOMINANT, Imputed
[11] = SNP rs1495381, allele (A1) T, GENOTYPIC, Imputed
[12] = SNP rs1495381, allele (A1) T, RECESSIVE, Imputed
[13] = SNP rs1498992, allele (A1) G, DOMINANT, Imputed
[14] = SNP rs1499001, allele (A1) T, DOMINANT, Imputed
[15] = SNP rs1512988, allele (A1) A, DOMINANT, Imputed
[16] = SNP rs1512989, allele (A1) T, DOMINANT, Imputed
[17] = SNP rs1512991, allele (A1) T, ADDITIVE, Imputed
[18] = SNP rs1512991, allele (A1) T, DOMINANT, Imputed
[19] = SNP rs1516855, allele (A1) G, RECESSIVE, Imputed
[20] = SNP rs1527450, allele (A1) T, ADDITIVE, Imputed
[21] = SNP rs1527450, allele (A1) T, GENOTYPIC, Imputed
[22] = SNP rs1567740, allele (A1) T, DOMINANT, Imputed
[23] = SNP rs1572573, allele (A1) A, ADDITIVE, Imputed
[24] = SNP rs1572573, allele (A1) A, DOMINANT, Imputed
[25] = SNP rs1584003, allele (A1) C, DOMINANT, Imputed
[26] = SNP rs1584005, allele (A1) C, DOMINANT, Imputed
[27] = SNP rs1585771, allele (A1) G, ADDITIVE, Imputed
[28] = SNP rs1592015, allele (A1) G, DOMINANT, Imputed
[29] = SNP rs1594885, allele (A1) A, ADDITIVE, Imputed
[30] = SNP rs1603232, allele (A1) A, DOMINANT, Imputed
[31] = SNP rs1614565, allele (A1) C, DOMINANT, Imputed
[32] = SNP rs1648200, allele (A1) G, ADDITIVE, Imputed
[33] = SNP rs1694334, allele (A1) G, ADDITIVE, Imputed
[34] = SNP rs1700400, allele (A1) T, ADDITIVE, Imputed
[35] = SNP rs1705237, allele (A1) A, DOMINANT, Imputed
[36] = SNP rs1705261, allele (A1) A, GENOTYPIC, Imputed
[37] = SNP rs1705261, allele (A1) A, RECESSIVE, Imputed
[38] = SNP rs1782328, allele (A1) A, ADDITIVE, Imputed
[39] = SNP rs1796337, allele (A1) T, DOMINANT, Imputed
[40] = SNP rs1798083, allele (A1) C, DOMINANT, Imputed
[41] = SNP rs1798085, allele (A1) T, DOMINANT, Imputed
[42] = SNP rs1798086, allele (A1) T, DOMINANT, Imputed
[43] = SNP rs1798089, allele (A1) C, GENOTYPIC, Imputed
[44] = SNP rs1798089, allele (A1) C, RECESSIVE, Imputed
[45] = SNP rs1798090, allele (A1) C, GENOTYPIC, Imputed
[46] = SNP rs1798090, allele (A1) C, RECESSIVE, Imputed
[47] = SNP rs1832222, allele (A1) G, DOMINANT, Imputed
[48] = SNP rs1838104, allele (A1) A, ADDITIVE, Imputed
[49] = SNP rs1838104, allele (A1) A, GENOTYPIC, Imputed

CC[C@H](C)C(=O)O[C@H]1C[C@H](O)C=C2C=C[C@H](C)[C@H](CC[C@@H](O)C[C@@H](O)CC(=O)O)[C@H]21 [Pravastatin, pravastatin]
OR [1]: 1.8009
OR(R) [1]: 1.8886
OR [2]: 1.8295
OR(R) [2]: 1.9062
OR [3]: 0.5022
OR(R) [3]: 0.4908
OR [4]: 0.5076
OR(R) [4]: 0.4938
OR [5]: 0.5726
OR(R) [5]: 0.5726
OR [6]: 0.6509
OR(R) [6]: 0.6509
OR [7]: 0.3915
OR(R) [7]: 0.3915
OR [8]: 0.5962
OR(R) [8]: 0.5962
OR [9]: 0.5347
OR(R) [9]: 0.5347
OR [10]: 0.5484
OR(R) [10]: 0.5467
OR [11]: 1.8616
OR(R) [11]: 1.8616
OR [12]: 1.9326
OR(R) [12]: 1.9326
OR [13]: 0.6213
OR(R) [13]: 0.6213
OR [14]: 0.6214
OR(R) [14]: 0.6214
OR [15]: 0.5976
OR(R) [15]: 0.5976
OR [16]: 0.5976
OR(R) [16]: 0.5976
OR [17]: 0.7391
OR(R) [17]: 0.7391
OR [18]: 0.5816
OR(R) [18]: 0.5816
OR [19]: 2.1755
OR(R) [19]: 2.1755
OR [20]: 1.486
OR(R) [20]: 1.486
OR [21]: 2.2868
OR(R) [21]: 2.2868
OR [22]: 0.596
OR(R) [22]: 0.596
OR [23]: 1.6309
OR(R) [23]: 1.6309
OR [24]: 1.8564
OR(R) [24]: 1.8564
OR [25]: 1.8445
OR(R) [25]: 1.8445
OR [26]: 1.8227
OR(R) [26]: 1.8227
OR [27]: 1.4824
OR(R) [27]: 1.4824
OR [28]: 0.5728
OR(R) [28]: 0.5728
OR [29]: 1.5121
OR(R) [29]: 1.5121
OR [30]: 0.5656
OR(R) [30]: 0.5656
OR [31]: 0.5357
OR(R) [31]: 0.5357
OR [32]: 1.4867
OR(R) [32]: 1.4867
OR [33]: 0.6436
OR(R) [33]: 0.6436
OR [34]: 0.6508
OR(R) [34]: 0.6508
OR [35]: 0.5283
OR(R) [35]: 0.5283
OR [36]: 1.8782
OR(R) [36]: 1.8782
OR [37]: 1.9326
OR(R) [37]: 1.9326
OR [38]: 0.6019
OR(R) [38]: 0.6019
OR [39]: 0.576
OR(R) [39]: 0.576
OR [40]: 0.5525
OR(R) [40]: 0.5525
OR [41]: 0.538
OR(R) [41]: 0.538
OR [42]: 0.5214
OR(R) [42]: 0.5214
OR [43]: 1.9613
OR(R) [43]: 1.9613
OR [44]: 1.9649
OR(R) [44]: 1.9649
OR [45]: 1.9722
OR(R) [45]: 1.9722
OR [46]: 1.941
OR(R) [46]: 1.941
OR [47]: 1.6153
OR(R) [47]: 1.6079
OR [48]: 0.6927
OR(R) [48]: 0.6927
OR [49]: 0.4828
OR(R) [49]: 0.4828
